From paper PMC8782181
These are yes or no findings as the source states them, for the method shown. In cells and extracts the contact can be indirect. Some entries that bind do so weakly or less than the wild type. Sequences can lack the tags named with a protein. Each block holds one molecule with its values, some of them ahead of it.

Protein sequences, listed by entry. Tags and fused reporters are not part of them.
UniProt P04147: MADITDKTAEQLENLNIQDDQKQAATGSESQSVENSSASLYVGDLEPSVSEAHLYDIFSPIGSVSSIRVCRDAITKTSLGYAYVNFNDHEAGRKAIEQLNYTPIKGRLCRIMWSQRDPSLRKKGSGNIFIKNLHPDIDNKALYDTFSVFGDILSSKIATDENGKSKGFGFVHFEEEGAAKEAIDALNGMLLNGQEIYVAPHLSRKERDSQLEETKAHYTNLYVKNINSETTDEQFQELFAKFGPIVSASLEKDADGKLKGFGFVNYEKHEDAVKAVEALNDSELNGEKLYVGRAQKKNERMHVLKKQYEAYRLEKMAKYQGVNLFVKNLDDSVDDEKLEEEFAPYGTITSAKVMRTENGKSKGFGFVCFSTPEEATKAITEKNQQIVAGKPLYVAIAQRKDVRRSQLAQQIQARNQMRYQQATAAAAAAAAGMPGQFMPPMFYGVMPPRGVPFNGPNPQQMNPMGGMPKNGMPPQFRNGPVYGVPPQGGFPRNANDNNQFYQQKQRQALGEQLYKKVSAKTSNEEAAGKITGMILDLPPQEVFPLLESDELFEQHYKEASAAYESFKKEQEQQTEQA

Target: T1, Pbp1-myc (S. cerevisiae) (UniProt P53297)
T1 sequence: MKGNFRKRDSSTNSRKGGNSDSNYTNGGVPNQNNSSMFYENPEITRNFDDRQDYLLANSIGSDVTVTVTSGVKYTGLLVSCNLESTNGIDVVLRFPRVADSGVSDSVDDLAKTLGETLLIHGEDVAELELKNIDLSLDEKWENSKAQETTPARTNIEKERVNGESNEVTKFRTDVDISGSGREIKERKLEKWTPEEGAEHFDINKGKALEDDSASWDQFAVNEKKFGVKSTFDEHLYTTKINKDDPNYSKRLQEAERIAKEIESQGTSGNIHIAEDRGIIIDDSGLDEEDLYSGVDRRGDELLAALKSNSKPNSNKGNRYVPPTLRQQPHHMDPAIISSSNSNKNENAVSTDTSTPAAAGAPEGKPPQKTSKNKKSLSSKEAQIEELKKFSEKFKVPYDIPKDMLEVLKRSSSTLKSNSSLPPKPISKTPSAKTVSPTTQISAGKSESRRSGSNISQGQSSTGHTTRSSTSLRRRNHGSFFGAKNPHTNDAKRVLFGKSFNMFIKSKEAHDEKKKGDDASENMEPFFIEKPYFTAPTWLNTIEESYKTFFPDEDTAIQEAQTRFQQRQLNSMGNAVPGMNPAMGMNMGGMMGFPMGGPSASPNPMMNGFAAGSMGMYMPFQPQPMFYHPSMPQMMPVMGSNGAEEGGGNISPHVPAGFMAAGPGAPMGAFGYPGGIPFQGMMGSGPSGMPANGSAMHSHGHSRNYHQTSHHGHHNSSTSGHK
Experiment: co-IP; immunoprecipitation of the myc-tagged bait from the 20,000 g pellet of cross-linked cells, glucose replete and glucose depleted, untagged control strain; Western blot of the fractions

- binding: binds
Molecule: Pab1 (from UniProt P04147 1-577)

- binding: binds
B1: Scp160 (protein, UniProt P06105 1-1222)
chain: MSEEQTAIDSPPSTVEGSVETVTTIDSPSTTASTIAATAEEHPQLEKKPTPLPSLKDLPSLGSNAAFANVKVSWGPNMKPAVSNSPSPSPSAPSLTTGLGAKRMRSKNIQEAFTLDLQSQLSITKPELSRIVQSVKKNHDVSVESTLSKNARTFLVSGVAANVHEAKRELVKKLTKPINAVIEVPSKCKASIIGSGGRTIREISDAYEVKINVSKEVNENSYDEDMDDTTSNVSLFGDFESVNLAKAKILAIVKEETKNATIKLVVEDEKYLPYIDVSEFASDEGDEEVKVQFYKKSGDIVILGPREKAKATKTSIQDYLKKLASNLDEEKVKIPSKFQFLIDAEELKEKYNVIVTFPSTPDDELVSFVGLRDKVGEAITYARSSSKSYVVESLDISKAHSKNLTHAKNLIMYFTKYSVLKGLEESHPNVKISLPSIQSLPTAETVTIHISAKSDEANDIKAVRKELISFVNNIPPSETLVITDLDYELFGGSIKHCLLASESSVAFVQFGDYYPNDNSILLVALTEDEDFKPSIEEIQASLNKANESLNSLRTKQNNMETKTYEFSEEVQDSLFKPSSATWKLIMEDISEQEGHLQIKLHTPEENQLTVRGDEKAAKAANKIFESILNSPSSKSKMTVNIPANSVARLIGNKGSNLQQIREKFACQIDIPNEENNNASKDKTVEVTLTGLEYNLTHAKKYLAAEAKKWADIITKELIVPVKFHGSLIGPHGTYRNRLQEKYNVFINFPRDNEIVTIRGPSRGVNKAHEELKALLDFEMENGHKMVINVPAEHVPRIIGKNGDNINDIRAEYGVEMDFLQKSTDPKAQETGEVELEITGSRQNIKDAAKRVESIVAEASDFVTEVLKIDHKYHKSIVGSGGHILREIISKAGGEEIRNKSVDIPNADSENKDITVQGPQKFVKKVVEEINKIVKDAENSVTKTIDIPAERKGALIGPGGIVRRQLESEFNINLFVPNKDDPSGKITITGAPENVEKAEKKILNEIIRENFDREVDVPASIYEYVSERGAFIQKLRMDLSVNVRFGNTSKKANKLARAPIEIPLEKVCGSTEGENAEKTKFTIEEVGAPTSSEEGDITMRLTYEPIDLSSILSDGEEKEVTKDTSNDSAKKEEALDTAVKLIKERIAKAPSATYAGYVWGADTRRFNMIVGPGGSNIKKIREAADVIINVPRKSDKVNDVVYIRGTKAGVEKAGEMVLKSLRR

- binding: binds
B2: eIF4E (protein, UniProt P07260 1-213)
chain: MSVEEVSKKFEENVSVDDTTATPKTVLSDSAHFDVKHPLNTKWTLWYTKPAVDKSESWSDLLRPVTSFQTVEEFWAIIQNIPEPHELPLKSDYHVFRNDVRPEWEDEANAKGGKWSFQLRGKGADIDELWLRTLLAVIGETIDEDDSQINGVVLSIRKGGNKFALWTKSEDKEPLLRIGGKFKQVLKLTDDGHLEFFPHSSANGRHPQPSITL
